PubChem BioAssay AID1053208 – Peter MacCallum Cancer Centre | 2014

- Screen: 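Find knock-downs that sensitise mouse osteosarcoma cells to doxorubicin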 (primary screen)
- System: mouse osteosarcoma cells, early-passage culture from an engineered mouse model of fibroblastic bone tumour
- Reagent: siRNA pool against mouse genes, 40 nM
- Time to read-out: about 120 h (48 h before drug, then 72 h with drug)
- Treatment: doxorubicin 100 nM for 72 h, roughly 30-40% inhibitory dose
- Detection: 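Luminescent ATP signal taken as viability with or without 100 nM doxorubicin for 72 h; mean of two wells set against non-targeting siRNA and turned into robust z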
- Scale: viability z-score with doxorubicin: higher = more viable cells under doxorubicin; viability z-score without drug: higher = more viable cells with knock-down alone; z-score of drug to no-drug ratio: higher = less drug sensitisation by knock-down
- Hit rule: 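Called active if knock-down leaves viability unchanged without drug (z within -2 to 2) but lowers it with doxorubicin (z at or under -2)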
Here is an unselected part of about 17,000 deposited reagents. In the full data, 788 (4.7%) were called active. 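Calls rest on z-score classes alone; an extra cut-off of viability at most 70% of control was not applied to them.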 Reagents against one gene are numbered here. Not all columns of the deposit are shown. Reagent sequences are not shown.

gene,reagent,combined z-score class,viability z-score with doxorubicin,viability z-score without drug,z-score of drug to no-drug ratio,Outcome
Or6ae1,1,no change with or without drug,0.22,0.17,0.22,inactive
Tie1,1,no change with or without drug,0.45,0.84,0,inactive
Prrc1,1,no change with or without drug,1.01,0.51,0.79,inactive
Snx16,1,no change with or without drug,-0.11,-1.35,1.01,inactive
Or1e33,1,no change with or without drug,-1.24,1.01,-1.8,inactive
Elf2,1,no change with or without drug,0.34,1.35,-0.45,inactive
Tspan33,1,no change with or without drug,0.9,-1.18,2.02,inactive
Tanc2,1,no change with or without drug,0,0.84,-0.45,inactive
Il10rb,1,no change with or without drug,0.9,0.34,0.79,inactive
Plekhg3,1,high cell count with and without drug,3.48,2.53,1.8,inactive
Cacng8,1,no change with or without drug,-0.34,0.84,-0.79,inactive
Spon2,1,no change with or without drug,-0.11,-0.51,0.34,inactive
Cntln,1,high cell count without drug only,-1.12,2.02,-2.14,inactive
Mblac1,1,no change with or without drug,-0.22,0.17,-0.22,inactive
Pikfyve,1,no change with or without drug,-0.67,0.34,-0.79,inactive
Cdkn1a,1,no change with or without drug,0.34,-0.51,0.79,inactive
Nfkbil1,1,no change with or without drug,0.9,0.51,0.67,inactive
Fam110c,1,no change with or without drug,0.22,0.17,0.22,inactive
Slc7a15,1,high cell count with doxorubicin only,2.02,0.84,1.57,inactive
Or5w15,1,no change with or without drug,-0.22,-0.51,0.22,inactive
Or7a40,1,no change with or without drug,1.35,0.34,1.24,inactive

Copied from above, 7 entries:
gene,reagent,combined z-score class,viability z-score with doxorubicin,viability z-score without drug,z-score of drug to no-drug ratio,Outcome
Cntln,1,high cell count without drug only,-1.12,2.02,-2.14,inactive
Mblac1,1,no change with or without drug,-0.22,0.17,-0.22,inactive
Pikfyve,1,no change with or without drug,-0.67,0.34,-0.79,inactive
Cdkn1a,1,no change with or without drug,0.34,-0.51,0.79,inactive
Nfkbil1,1,no change with or without drug,0.9,0.51,0.67,inactive
Fam110c,1,no change with or without drug,0.22,0.17,0.22,inactive
Slc7a15,1,high cell count with doxorubicin only,2.02,0.84,1.57,inactive

The listing continues.
gene,reagent,combined z-score class,viability z-score with doxorubicin,viability z-score without drug,z-score of drug to no-drug ratio,Outcome
Bmp4,1,no change with or without drug,1.8,0.51,1.57,inactive
Zdhhc9,1,no change with or without drug,0,-0.84,0.67,inactive
Impg1,1,no change with or without drug,0.9,-0.51,1.46,inactive
Prr9,1,no change with or without drug,-0.45,0.51,-0.67,inactive
Htr2c,1,no change with or without drug,-0.34,-0.34,0,inactive
Sack1g,1,high cell count without drug only,-1.69,2.19,-2.81,inactive
Spn,1,no change with or without drug,-0.45,-0.51,0,inactive
Slc6a15,1,no change with or without drug,1.12,1.69,0.11,inactive
Slc6a15,2,no change with or without drug,0.22,1.18,-0.45,inactive
Slc25a13,1,no change with or without drug,0,-0.67,0.56,inactive
Or4c10,1,no change with or without drug,0,-0.67,0.56,inactive
Adamdec1,1,no change with or without drug,-0.45,-0.51,0,inactive
Rfpl4,1,low cell count with doxorubicin only,-2.14,-1.85,-1.01,active
Or6c66,1,no change with or without drug,-0.67,0.84,-1.12,inactive
Fbxl7,1,no change with or without drug,-0.67,0.84,-1.12,inactive
Xab2,1,low cell count with doxorubicin only,-2.81,-1.52,-2.02,active
Vapa,1,no change with or without drug,-1.46,-1.18,-0.67,inactive
Msrb2,1,no change with or without drug,1.35,-1.52,2.81,inactive
Gpr162,1,no change with or without drug,-1.12,0.17,-1.12,inactive
Atg12,1,low cell count with doxorubicin only,-2.36,0.84,-2.81,active
Sag,1,no change with or without drug,-0.9,0.17,-0.9,inactive
Or10ak13,1,no change with or without drug,0.45,-0.34,0.79,inactive
Rspo2,1,no change with or without drug,0.34,1.69,-0.67,inactive
Figla,1,no change with or without drug,0.11,0.51,-0.11,inactive
Zwint,1,no change with or without drug,-0.22,-0.84,0.45,inactive
Tmco5a,1,no change with or without drug,-0.45,0.84,-0.9,inactive
Pno1,1,low cell count with and without drug,-4.16,-5.56,-0.67,inactive
Sptssb,1,low cell count without drug only,-1.12,-2.19,0.45,inactive
Tjp2,1,no change with or without drug,-0.45,0.51,-0.67,inactive
